From the supplement of paper PMC10398353 come the findings set out here.

Molecules are shown by their SMILES. Where “and” joins values, the source holds several entries; their conditions need not be identical. Equal values may be shown once. Where a name gives a salt, the structure may show the parent alone. ± gives the standard deviation of the averaged measurements. Some of the results follow. Single values of this set are uncertain.

In the assay the test system is Salmonella enterica serovar Typhimurium ST313 D23580. The experiment in a line: normalized bacterial growth (OD600 20 h minus 0 h, interquartile-mean normalized) (fraction of plate interquartile mean); higher = more bacterial growth (less inhibition). To be noted: LPM (pH 5.8, low phosphate, low Mg2+), concentration: 10 µM, temperature: 37 °C.
`O=C(O)C1=CC(=C(c2ccc(O)c(C(=O)O)c2)c2ccc(O)c(C(=O)O)c2)C=CC1=O` [Aurintricarboxylic acid] registered a normalized bacterial growth of 1.19. In the case of `C[C@@H]1C/C=C/C=C/C=C/C=C/[C@H](O[C@@H]2O[C@H](C)[C@@H](O)[C@H](N)[C@@H]2O)C[C@@H]2O[C@](O)(C[C@@H](O)C[C@H]3O[C@@H]3/C=C/C(=O)O1)C[C@H](O)[C@H]2C(=O)O` it was 0.93 and 0.816; in that of `CC(C(O)c1ccc(O)cc1)N1CCC(Cc2ccccc2)CC1` (configuration not stated) [Ifenprodil tartrate], 1.04 ± 0.07.

`O=c1ccn([C@@H]2O[C@H](COP(=O)(O)OP(=O)(O)O)[C@@H](O)[C@H]2O)c(=O)[nH]1` [Uridine 5'-diphosphate sodium] showed a normalized bacterial growth of 1.06.

In turn, `COc1ccc(Cl)cc1C(=O)NCCc1ccc(S(=O)(=O)NC(=O)NC2CCCCC2)cc1` [Glybenclamide] returned a normalized bacterial growth of 0.923. In turn, `CC(C)=CCC1=C(O)C(=O)c2ccccc2C1=O` yielded a normalized bacterial growth of 0.795. For `CC#C[C@]1(O)CC[C@H]2[C@@H]3CCC4=CC(=O)CCC4=C3[C@@H](c3ccc(N(C)C)cc3)C[C@@]21C` [Mifepristone] the value was 1.11; for `CCCOc1ccccc1-c1nc2[nH]nnc2c(=O)[nH]1` [Zaprinast], 1.07 ± 0.015. In the case of `CCCCCCNC(=O)n1cc(F)c(=O)[nH]c1=O` it was 0.0478; in that of `Cc1cc(O)c2c(c1O)C(=O)c1c(O)cc(C)c(O)c1C2=O`, 1.25. For `COc1cc(OC)c2ccc(=O)oc2c1` the value was 0.997; for `O=C(CCBr)N1CCN(C(=O)CCBr)CC1`, 1.02. In turn, `CCCCC1C(=O)N(c2ccccc2)N(c2ccc(O)cc2)C1=O` (configuration not stated) had a normalized bacterial growth of 1.13. Molecule `N[C@H]1CONC1=O` came in with a normalized bacterial growth of 0.896. In the case of `N[C@H]1CONC1=O` [L-Cycloserine] it was 1.05; in that of `O=C(O)c1cc(=O)c(O)c2c(O)c(O)c(O)cc2c1`, 0.304; in that of `O=c1c(O)c(-c2ccc(O)cc2)oc2cc(O)cc(O)c12`, 1.01. For `CC(=O)Nc1ccc(OC(=O)c2ccccc2O)cc1` the value was 1.01. In the case of `COc1cc2nc(N3CCN(C(=O)C4COc5ccccc5O4)CC3)nc(N)c2cc1OC` (configuration not stated) [Doxazosin mesylate] it was 0.646; in that of `COC(=O)C[C@H]1C2(C)CC34OC5(C)O[C@@]6([C@H](OC(C)=O)C(OC(C)=O)[C@]7(C)C(/C(=C(/O)C(C)C)C(=O)O[C@H]7c7ccoc7)[C@@]6(O5)[C@H](OC(C)=O)[C@@]3(O)C2OC(=O)C(C)C)[C@]14C` (some centres not stated), 0.936. In turn, `O=c1[nH]ccc2c(O)cccc12` ["1,5-Isoquinolinediol"] gave a normalized bacterial growth of 1.19. As for `CC(C)(CO)[C@@H](O)C(=O)NCCC(=O)O` [PANTOTHENIC ACID(d) Na salt], the normalized bacterial growth is 1.15.

As to `CC(C)(CO)[C@@H](O)C(=O)NCCC(=O)O` [Pantothenic acid calcium salt monohydrate], the normalized bacterial growth came out at 1.16. Regarding `Cc1cc(C(C)(C)C)cc(C)c1CC1=NCCN1` [Xylometazoline hydrochloride], the normalized bacterial growth was found to be 1.03. In the case of `CCN(CCCCOC(=O)c1ccc(OC)c(OC)c1)C(C)Cc1ccc(OC)cc1` (configuration not stated), the normalized bacterial growth turned out to be 0.54. Turning to `O=C(c1cc(O)c(O)c([N+](=O)[O-])c1)c1ccccc1F`, the normalized bacterial growth came to 1.15. The molecule `CC(=O)O[C@@H]1CC(=O)[C@@]2(C)C(CC(=O)[C@]3(C)C2CC[C@@]2(C)[C@H](c4ccoc4)OC(=O)C4OC423)C1(C)C` (some centres not stated) came in with a normalized bacterial growth of 0.805. Molecule `CCOC(=O)c1c(C)cc(OC)cc1O` registered a normalized bacterial growth of 0.798.

For `CC(=O)O[C@H]1CC(=O)OC(C)(C)[C@@H]2CC(=O)[C@]3(C)[C@H](CC[C@@]4(C)[C@@H](c5ccoc5)OC(=O)[C@H]5O[C@]543)[C@@]12C`, the normalized bacterial growth turned out to be 1.01. For `CCN(CC)CCOCCOC(=O)C1(c2ccccc2)CCCC1` [Carbetapentane citrate] the value was 0.842; for `NC[C@H]1O[C@H](O[C@H]2[C@H](O)[C@@H](O[C@H]3O[C@H](CO)[C@@H](O)[C@H](N)[C@H]3O)[C@H](N)C[C@@H]2N)[C@H](N)C[C@@H]1O`, 0.804. For `C#Cc1ccc2c(c1)C(=O)N(C)Cc1c(C(=O)OCCCOC(=O)c3ncn4c3CN(C)C(=O)c3cc(C#C)ccc3-4)ncn1-2` [Xli 093 hydrate] the value was 1.04. The molecule `Cc1c(N)c(=O)n(-c2ccccc2)n1C` [Ampyrone] returned a normalized bacterial growth of 1.22. For `COc1ccc2c(c1)c(CC(=O)O)c(C)n2C(=O)c1ccccc1` [1-benzoyl-5-methoxy-2-methylindole-3-acetic acid] the value was 0.903. Take `C=C/C(C)=C/[C@@]1(C)SC(=O)C(C)=C1O` [Thiolactomycin]: the normalized bacterial growth is 0.785.

The molecule `CCOC(=O)Nc1nc2ccccc2[nH]1` came in with a normalized bacterial growth of 1.03. For `COc1ccc(-c2oc3cc(OC)c(OC)c(OC)c3c(=O)c2OC)cc1OC` the value was 0.888; for `NS(=O)(=O)C#Cc1ccccc1` [Pifithrin-mu], 0.81. For `Nc1c(S(=O)(=O)O)cc(Nc2ccc(Nc3nc(Cl)nc(Nc4cccc(S(=O)(=O)O)c4)n3)c(S(=O)(=O)O)c2)c2c1C(=O)c1ccccc1C2=O` [Reactive Blue 2] the value was 0.682; for `Cc1ccc(C(=O)C(C)CN2CCCCC2)cc1` (configuration not stated), 0.834; for `c1ccc(CN2CCC3(CCCc4ccccc43)CC2)cc1` ["L-687,384 hydrochloride"], 0.765. For `CNCC[C@@H](Oc1ccccc1C)c1ccccc1`, the normalized bacterial growth turned out to be 1.16. On to `CNCC[C@@H](Oc1ccccc1C)c1ccccc1` [Tomoxetine], for which the normalized bacterial growth was 0.834. For `OC[C@H]1O[C@@H](O[C@@H]2OC=C[C@H]3[C@H](O)[C@@H]4O[C@]4(CO)[C@@H]23)[C@H](O)[C@@H](O)[C@@H]1O` the value was 1.36; for `O=C(CCCCC(=O)Nc1c(I)cc(I)c(C(=O)O)c1I)Nc1c(I)cc(I)c(C(=O)O)c1I` [Iodipamide], 1.21; for `O=C(CCCCC(=O)Nc1c(I)cc(I)c(C(=O)O)c1I)Nc1c(I)cc(I)c(C(=O)O)c1I`, 0.731. Consider `COc1cc(C(C)=O)cc(OC)c1O`, for which the normalized bacterial growth worked out at 1.07.

Take `CC(C)=CCC/C(C)=C\CO`: the normalized bacterial growth amounted to 0.949. Molecule `COCCCOc1ccnc(C[S+]([O-])c2nc3ccccc3[nH]2)c1C` (configuration not stated) displayed a normalized bacterial growth of 1.18. On to `O=C(O)Cc1cc(I)c(Oc2ccc(O)c(I)c2)c(I)c1` ["Tiratricol, 3,3',5-triiodothyroacetic acid"], for which the normalized bacterial growth is 0.723. `COCCCOc1cc(C[C@@H](C[C@H](N)[C@@H](O)C[C@H](C(=O)NCC(C)(C)C(N)=O)C(C)C)C(C)C)ccc1OC`: the normalized bacterial growth was determined as 1.02. For `CCCCOC(=O)c1ccc(O)cc1` the value was 0.72.
